Measurements published in PubChem BioAssay AID248 (DTP/NCI, 2004).
The list is a part of this screen's results and no random one: it is rich in T/C values a quarter to a half above the control, in often repeated tests (any T/C) and in doses without a T/C. Further doses and runs are listed elsewhere. T/C is the treated group as % of the vehicle group. Some doses have a count of surviving animals in place of a T/C: the source files T/C as zero there, which appears to mark a toxic dose or a test without result, not a measured value. Some doses without a T/C left all or most animals alive at the check, yet need not have been tolerated: survival well below the control is almost never listed, so the zero probably covers shortened survival too. Counts of survivors are from the toxicity check (mostly the fifth day) where no day follows; animals may have died later. Schedules are NCI's codes, read here as Q, the interval in days (D) or hours (H), X, the number of doses. Some entries hold several experiments; the results are listed from low to high. Some schedule codes hold Z or #, which are not explained here. For survival time, this PubChem deposit counts one and a half times the control or more as active, and values a quarter to a half above the control carry no call in these data; other NCI protocols may use other cut-offs. Some T/C values carry the count of animals alive at the toxicity check (mostly the fifth day); where none is given, no animal had died by that day.

System: L1210 leukemia ip in BDF1 mice, survival T/C
Assay: NCI In Vivo Anticancer Drug Screen. Data for tumor model L1210 Leukemia (intraperitoneal) in B6D2F1 (BDF1) mice
Settings: T/C endpoint: mean survival time, higher T/C = longer survival
[1] = dose: 1.25 mg/kg/injection, schedule: Q01DX009 (ip), vehicle: saline
[2] = dose: 2.5 mg/kg/injection, schedule: Q01DX009 (ip), vehicle: saline
[3] = dose: 15.0 mg/kg/injection, schedule: Q04DX003 (ip), vehicle: saline with Tween-80
[4] = dose: 0.44 mg/kg/injection, schedule: Q01DX009 (ip), vehicle: saline
[5] = dose: 2.5 mg/kg/injection, schedule: Q01DX001 (ip), vehicle: saline
[6] = dose: 240.0 mg/kg/injection, schedule: Q01DX Z (ip), vehicle: other
[7] = dose: 360.0 mg/kg/injection, schedule: Q01DX Z (ip), vehicle: other
[8] = dose: 3.0 mg/kg/injection, schedule: Q01DX009 (ip), vehicle: carboxymethylcellulose (CMC)

Question: `CC([NH-])C[NH-].[Cl][Pt+2][Cl]` (stereo not drawn) was tested. Which T/C [1] did it give?
Answer: 133 and 136 % of control

Question: And the T/C [2]?
Answer: 139, 146, 148, 162 % of control [5 of 6 alive]

Question: And the T/C (dose: 5.0 mg/kg/injection, schedule: Q01DX009 (ip), vehicle: saline)?
Answer: 148 % of control

Question: And the T/C (dose: 6.6 mg/kg/injection, schedule: Q04DX003 (ip), vehicle: saline with Tween-80)?
Answer: 127 and 131 % of control

Question: And the survivor count (dose: 10.0 mg/kg/injection, schedule: Q01DX009 (ip), vehicle: saline)?
Answer: 3 of 6 and 5 of 6

Question: What about the T/C (dose: 10.0 mg/kg/injection, schedule: Q04DX003 (ip), vehicle: saline with Tween-80) of the same molecule?
Answer: 129 and 140 % of control

Question: And the T/C [3]?
Answer: 138 % of control

Question: What about the survivor count [3] of the same molecule?
Answer: 4 of 6

Question: And the survivor count (dose: 25.0 mg/kg/injection, schedule: Q04DX002 (ip), vehicle: Klucel (hydroxypropylcellulose) (HPC))?
Answer: 0 of 3

Question: What about the survivor count (dose: 50.0 mg/kg/injection, schedule: Q04DX002 (ip), vehicle: Klucel (hydroxypropylcellulose) (HPC)) of the same molecule?
Answer: 0 of 3

Question: And the survivor count (dose: 100.0 mg/kg/injection, schedule: Q04DX002 (ip), vehicle: Klucel (hydroxypropylcellulose) (HPC))?
Answer: 0 of 3

Question: What about the survivor count (dose: 200.0 mg/kg/injection, schedule: Q04DX002 (ip), vehicle: Klucel (hydroxypropylcellulose) (HPC)) of the same molecule?
Answer: 0 of 3

Question: And the survivor count (dose: 400.0 mg/kg/injection, schedule: Q04DX002 (ip), vehicle: Klucel (hydroxypropylcellulose) (HPC))?
Answer: 0 of 3

Question: Which survivor count (dose: 400.0 mg/kg/injection, schedule: Q01DX001 (ip), vehicle: saline) does the source give for `CC(=O)Oc1ccc(Cl)cc1C=O` here?
Answer: 0 of 6

Question: How did the survivor count (dose: 75.0 mg/kg/injection, schedule: Q01DX001 (ip), vehicle: saline) turn out when `CCCCCCCCCCC[n+]1ccc(C#N)cc1` was run?
Answer: 0 of 6

Question: What about the survivor count (dose: 150.0 mg/kg/injection, schedule: Q01DX001 (ip), vehicle: saline) of the same molecule?
Answer: 0 of 6

Question: And the survivor count (dose: 300.0 mg/kg/injection, schedule: Q01DX001 (ip), vehicle: saline)?
Answer: 0 of 6

Question: What does the source list for `O=C(NCCCCCCNC(=O)N1CC1)N1CC1`?
Answer: T/C (dose: 0.29 mg/kg/injection, schedule: Q01DX009 (ip), vehicle: saline): 130 % of control; T/C [4]: 138 % of control; survivor count [4]: 6 of 6; T/C (dose: 0.62 mg/kg/injection, schedule: Q01DX009 (ip), vehicle: saline): 148 % of control; T/C (dose: 1.0 mg/kg/injection, schedule: Q01DX009 (ip), vehicle: saline): 141 % of control; T/C (dose: 1.2 mg/kg/injection, schedule: Q04DX003 (ip), vehicle: saline): 134 % of control; T/C [1]: 129 % of control; survivor count (dose: 1.7 mg/kg/injection, schedule: Q01DX001 (ip), vehicle: saline): 2 of 6; T/C (dose: 1.7 mg/kg/injection, schedule: Q04DX003 (ip), vehicle: saline): 139 and 148 % of control; T/C [5]: 132 and 139 % of control; survivor count [5]: 2 of 6; survivor count [2]: 6 of 6; survivor count (dose: 3.3 mg/kg/injection, schedule: Q01DX009 (ip), vehicle: saline): 6 of 6; survivor count (dose: 3.7 mg/kg/injection, schedule: Q01DX001 (ip), vehicle: saline): 2 of 6; survivor count (dose: 5.0 mg/kg/injection, schedule: Q01DX001 (ip), vehicle: saline): 3 of 6; survivor count (dose: 10.0 mg/kg/injection, schedule: Q01DX001 (ip), vehicle: saline): 1 of 6

Question: `Cc1cccc(C(=O)OCc2ccccc2CN2CCCC2)c1` was tested. Which survivor count (dose: 400.0 mg/kg/injection, schedule: Q04DX002 (ip), vehicle: saline) did it give?
Answer: 1 of 3

Question: `CCCCCCCCCCCC[N+](C)(C)CCCCCCCCCCCC` was tested. Which survivor count (dose: 23.0 mg/kg/injection, schedule: Q01DX009 (ip), vehicle: saline) did it give?
Answer: 4 of 6

Question: What about the survivor count (dose: 35.0 mg/kg/injection, schedule: Q01DX009 (ip), vehicle: saline) of the same molecule?
Answer: 0 of 6

Question: And the survivor count (dose: 50.0 mg/kg/injection, schedule: Q01DX009 (ip), vehicle: saline)?
Answer: 0 of 6

Question: `O=Cc1ccc(O)c(O)c1` was tested. Which survivor count (dose: 160.0 mg/kg/injection, schedule: Q01DX Z (ip), vehicle: other) did it give?
Answer: 1 of 6

Question: What about the T/C [6] of the same molecule?
Answer: 127 % of control

Question: What about the survivor count [6] of the same molecule?
Answer: 0 of 6

Question: And the T/C (dose: 340.0 mg/kg/injection, schedule: Q01DX Z (ip), vehicle: other)?
Answer: 129 % of control

Question: And the T/C (dose: 360.0 mg/kg/injection, schedule: Q01DX Z (ip), vehicle: carboxymethylcellulose (CMC))?
Answer: 136 % of control

Question: What about the T/C [7] of the same molecule?
Answer: 141 % of control [5 of 6 alive]

Question: And the survivor count [7]?
Answer: 0 of 6

Question: What about the survivor count (dose: 540.0 mg/kg/injection, schedule: Q01DX Z (ip), vehicle: carboxymethylcellulose (CMC)) of the same molecule?
Answer: 3 of 6

Question: What about the survivor count (dose: 540.0 mg/kg/injection, schedule: Q01DX Z (ip), vehicle: other) of the same molecule?
Answer: 0 of 6

Question: What about the survivor count (dose: 1000.0 mg/kg/injection, schedule: Q01DX Z (ip), vehicle: other) of the same molecule?
Answer: 3 of 6

Question: `NC(N)=NCCN=C(N)N` was tested. Which survivor count (dose: 240.0 mg/kg/injection, schedule: Q01DX Z (oral), vehicle: saline) did it give?
Answer: 5 of 6

Question: What about the survivor count (dose: 480.0 mg/kg/injection, schedule: Q01DX Z (oral), vehicle: saline) of the same molecule?
Answer: 2 of 6

Question: What does the source list for `Nc1ncc(CO)c(N)n1`?
Answer: survivor count (dose: 200.0 mg/kg/injection, schedule: Q01DX001 (ip), vehicle: Klucel (hydroxypropylcellulose) (HPC)): 5 of 6; survivor count (dose: 400.0 mg/kg/injection, schedule: Q01DX001 (ip), vehicle: Klucel (hydroxypropylcellulose) (HPC)): 0 of 6

Question: How did the survivor count (dose: 400.0 mg/kg/injection, schedule: Q01DX009 (ip), vehicle: Klucel (hydroxypropylcellulose) (HPC)) turn out when `CC(CC(C#CC(CC(C)CC(C)(C)C)N(C)C)N(C)C)CC(C)(C)C` (stereo not drawn) was run?
Answer: 3 of 3

Question: Which survivor count (dose: 100.0 mg/kg/injection, schedule: Q01DX009 (ip), vehicle: Klucel (hydroxypropylcellulose) (HPC)) does the source give for `O=C(CCl)Nc1ccc([As](=O)(O)O)cc1` here?
Answer: 3 of 6

Question: And the survivor count (dose: 200.0 mg/kg/injection, schedule: Q04DX003 (ip), vehicle: Klucel (hydroxypropylcellulose) (HPC))?
Answer: 1 of 6

Question: `O=C(CN1CC1)Nc1ccc(NC(=O)CN2CC2)cc1` was tested. Which T/C [8] did it give?
Answer: 127 % of control [5 of 6 alive]

Question: And the survivor count [8]?
Answer: 2 of 6

Question: What about the T/C (dose: 6.0 mg/kg/injection, schedule: Q01DX009 (ip), vehicle: carboxymethylcellulose (CMC)) of the same molecule?
Answer: 134 and 136 % of control [5 of 6 alive]

Question: And the T/C (dose: 7.3 mg/kg/injection, schedule: Q01DX009 (ip), vehicle: carboxymethylcellulose (CMC))?
Answer: 137 % of control

Question: And the T/C (dose: 11.0 mg/kg/injection, schedule: Q01DX001 (ip), vehicle: carboxymethylcellulose (CMC))?
Answer: 127 % of control

Question: And the T/C (dose: 11.1 mg/kg/injection, schedule: Q01DX001 (ip), vehicle: carboxymethylcellulose (CMC))?
Answer: 128 % of control

Question: What about the T/C (dose: 16.6 mg/kg/injection, schedule: Q01DX001 (ip), vehicle: carboxymethylcellulose (CMC), evaluated on day 30) of the same molecule?
Answer: 133 % of control

Question: What about the T/C (dose: 16.6 mg/kg/injection, schedule: Q01DX001 (ip), vehicle: carboxymethylcellulose (CMC), run until all animals had died) of the same molecule?
Answer: 133 % of control

Question: What about the T/C (dose: 25.0 mg/kg/injection, schedule: Q01DX001 (ip), vehicle: carboxymethylcellulose (CMC)) of the same molecule?
Answer: 144 % of control

Question: And the survivor count (dose: 25.0 mg/kg/injection, schedule: Q01DX009 (ip), vehicle: carboxymethylcellulose (CMC))?
Answer: 6 of 6

Question: What about the survivor count (dose: 37.5 mg/kg/injection, schedule: Q01DX009 (ip), vehicle: carboxymethylcellulose (CMC)) of the same molecule?
Answer: 0 of 6

Question: What about the survivor count (dose: 100.0 mg/kg/injection, schedule: Q01DX001 (ip), vehicle: carboxymethylcellulose (CMC)) of the same molecule?
Answer: 0 of 4

Question: With `O=C(CCCl)N1CCN(C(=O)CCCl)CC1` as the molecule, how does the T/C (dose: 176.0 mg/kg/injection, schedule: Q01DX009 (ip), vehicle: saline) read?
Answer: 126 % of control

Question: What about the T/C (dose: 264.0 mg/kg/injection, schedule: Q01DX009 (ip), vehicle: saline) of the same molecule?
Answer: 130 % of control
